Laboratory results: the supplement of paper PMC8728848
This is one part of the list.

Experiments:
Experiment in all cases: glycan array binding signal (z-score within array); higher = stronger binding
Settings in all cases: glycan notation: IUPAC condensed, linker removed
Gal(a1-3)Gal = target: Gal(a1-3)Gal
In short: (§1)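 From the Consortium for Functional Glycomics database, 3228 arrays were curated, keeping only those whose protein sequence was available. Binding is given as a within-array Z-score averaged across arrays sharing a protein sequence and across linkers. Negative Z-scores can be read as non-binding.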

Gal(a1-3)Gal(b1-3)GlcNAc = target: Gal(a1-3)Gal(b1-3)GlcNAc
In short: as §1

[1] = target: Gal(a1-3)Gal(b1-3)GlcNAc(b1-2)Man(a1-3)[Gal(a1-3)Gal(b1-3)GlcNAc(b1-2)Man(a1-6)]Man(b1-4)GlcNAc(b1-4)GlcNAc
In short: as §1

[2] = target: Gal(a1-3)Gal(b1-3)GlcNAc(b1-3)GalNAc
In short: as §1

[3] = target: Gal(a1-3)Gal(b1-3)[Fuc(a1-4)]GlcNAc(b1-2)Man(a1-3)[Gal(a1-3)Gal(b1-3)[Fuc(a1-4)]GlcNAc(b1-2)Man(a1-6)]Man(b1-4)GlcNAc(b1-4)GlcNAc
In short: as §1

Gal(a1-3)Gal(b1-4)Glc = target: Gal(a1-3)Gal(b1-4)Glc
In short: as §1

Gal(a1-3)Gal(b1-4)GlcNAc = target: Gal(a1-3)Gal(b1-4)GlcNAc
In short: as §1

[4] = target: Gal(a1-3)Gal(b1-4)GlcNAc(b1-3)GalNAc
In short: as §1

[5] = target: Gal(a1-3)Gal(b1-4)[Fuc(a1-3)]GlcNAc
In short: as §1

[6] = target: Gal(a1-3)Gal(b1-4)[Fuc(a1-3)]GlcNAc(b1-2)Man(a1-3)[Gal(a1-3)Gal(b1-4)[Fuc(a1-3)]GlcNAc(b1-2)Man(a1-6)]Man(b1-4)GlcNAc(b1-4)GlcNAc
In short: as §1

Gal(a1-3)GalNAc = target: Gal(a1-3)GalNAc
In short: as §1

[7] = target: Gal(a1-3)[Gal(a1-4)]Gal(b1-4)GlcNAc
In short: as §1

[8] = target: Gal(a1-4)Gal(b1-3)GlcNAc(b1-2)Man(a1-3)[Gal(a1-4)Gal(b1-3)GlcNAc(b1-2)Man(a1-6)]Man(b1-4)GlcNAc(b1-4)GlcNAc
In short: as §1

Gal(a1-4)Gal(b1-4)Glc = target: Gal(a1-4)Gal(b1-4)Glc
In short: as §1

Gal(a1-4)Gal(b1-4)GlcNAc = target: Gal(a1-4)Gal(b1-4)GlcNAc
In short: as §1

[9] = target: Gal(a1-4)Gal(b1-4)GlcNAc(b1-2)Man(a1-3)[Gal(a1-4)Gal(b1-4)GlcNAc(b1-2)Man(a1-6)]Man(b1-4)GlcNAc(b1-4)GlcNAc
In short: as §1

[10] = target: Gal(a1-4)Gal(b1-4)GlcNAc(b1-3)Gal(b1-4)Glc
In short: as §1

Gal(a1-4)GlcNAc = target: Gal(a1-4)GlcNAc
In short: as §1

Gal(a1-6)Glc = target: Gal(a1-6)Glc
In short: as §1

Gal(b1-2)Gal = target: Gal(b1-2)Gal
In short: as §1

Gal(b1-3)Gal = target: Gal(b1-3)Gal
In short: as §1

Gal(b1-3)Gal(b1-4)GlcNAc = target: Gal(b1-3)Gal(b1-4)GlcNAc
In short: as §1

[11] = target: Gal(b1-3)Gal(b1-4)GlcNAc(b1-2)Man(a1-3)[Gal(b1-3)Gal(b1-4)GlcNAc(b1-2)Man(a1-6)]Man(b1-4)GlcNAc(b1-4)GlcNAc
In short: as §1

Gal(b1-3)GalNAc = target: Gal(b1-3)GalNAc
In short: as §1

[12] = target: Gal(b1-3)GalNAc(a1-3)[Fuc(a1-2)]Gal(b1-4)Glc
In short: as §1

[13] = target: Gal(b1-3)GalNAc(a1-3)[Fuc(a1-2)]Gal(b1-4)GlcNAc
In short: as §1

[14] = target: Gal(b1-3)GalNAc(b1-3)Gal(a1-4)Gal(b1-4)Glc
In short: as §1

[15] = target: Gal(b1-3)GalNAc(b1-4)Gal(b1-4)Glc
In short: as §1

[16] = target: Gal(b1-3)GalNAc(b1-4)[Neu5Ac(a2-3)]Gal(b1-4)Glc
In short: as §1

Gal(b1-3)GlcNAc = target: Gal(b1-3)GlcNAc
In short: as §1

[17] = target: Gal(b1-3)GlcNAc(a1-6)Gal(b1-4)GlcNAc
In short: as §1

[18] = target: Gal(b1-3)GlcNAc(b1-2)Man(a1-3)[Gal(b1-3)GlcNAc(b1-2)Man(a1-6)]Man(b1-4)GlcNAc(b1-4)GlcNAc
In short: as §1

[19] = target: Gal(b1-3)GlcNAc(b1-2)Man(a1-3)[Gal(b1-3)GlcNAc(b1-2)Man(a1-6)]Man(b1-4)GlcNAc(b1-4)[Fuc(a1-6)]GlcNAc
In short: as §1

[20] = target: Gal(b1-3)GlcNAc(b1-2)[Gal(b1-3)GlcNAc(b1-6)]Man(a1-6)[Gal(b1-3)GlcNAc(b1-2)Man(a1-3)]Man(b1-4)GlcNAc(b1-4)GlcNAc
In short: as §1

[21] = target: Gal(b1-3)GlcNAc(b1-3)Gal(b1-3)GlcNAc
In short: as §1

[22] = target: Gal(b1-3)GlcNAc(b1-3)Gal(b1-4)Glc
In short: as §1

[23] = target: Gal(b1-3)GlcNAc(b1-3)Gal(b1-4)GlcNAc
In short: as §1

[24] = target: Gal(b1-3)GlcNAc(b1-3)Gal(b1-4)GlcNAc(b1-6)[Gal(b1-3)GlcNAc(b1-3)]Gal(b1-4)Glc
In short: as §1

[25] = target: Gal(b1-3)GlcNAc(b1-3)Gal(b1-4)[Fuc(a1-3)]GlcNAc(b1-6)[Gal(b1-3)GlcNAc(b1-3)]Gal(b1-4)Glc
In short: as §1

[26] = target: Gal(b1-3)GlcNAc(b1-3)GalNAc
In short: as §1

[27] = target: Gal(b1-3)GlcNAc(b1-6)Gal(b1-4)GlcNAc
In short: as §1

[28] = target: Gal(b1-3)[Fuc(a1-4)]GlcNAc
In short: as §1

[29] = target: Gal(b1-3)[Fuc(a1-4)]GlcNAc(b1-2)Man(a1-3)[Gal(b1-3)[Fuc(a1-4)]GlcNAc(b1-2)Man(a1-6)]Man(b1-4)GlcNAc(b1-4)GlcNAc
In short: as §1

[30] = target: Gal(b1-3)[Fuc(a1-4)]GlcNAc(b1-2)Man(a1-3)[Gal(b1-3)[Fuc(a1-4)]GlcNAc(b1-2)Man(a1-6)]Man(b1-4)GlcNAc(b1-4)[Fuc(a1-6)]GlcNAc
In short: as §1

[31] = target: Gal(b1-3)[Fuc(a1-4)]GlcNAc(b1-3)Gal(b1-3)[Fuc(a1-4)]GlcNAc
In short: as §1

B1: Intelectin 1 (Homo sapiens), Q8WWA0 (protein)
chain: MNQLSFLLFLIATTRGWSTDEANTYFKEWTCSSSPSLPRSCKEIKDECPSAFDGLYFLRTENGVIYQTFCDMTSGGGGWTLVASVHENDMRGKCTVGDRWSSQQGSKAVYPEGDGNWANYNTFGSAEAATSDDYKNPGYYDIQAKDLGIWHVPNKSPMQHWRNSSLLRYRTDTGFLQTLGHNLFGIYQKYPVKYGEGKCWTDNGPVIPVVYDFGDAQKTASYYSPYGQREFTAGFVQFRVFNNERAANALCAGMRVTGCNTEHHCIGGGGYFPEASPQQCGDFSGFDWSGYGTHVGYSSSREITEAAVLLFYR
glycan array binding signal (z-score) (Gal(a1-3)Gal): -0.751
glycan array binding signal (z-score) (Gal(a1-3)Gal(b1-3)GlcNAc): -0.17
glycan array binding signal (z-score) [1]: 0.538
glycan array binding signal (z-score) [2]: 1.19
glycan array binding signal (z-score) [3]: -0.468
glycan array binding signal (z-score) (Gal(a1-3)Gal(b1-4)Glc): -0.288
glycan array binding signal (z-score) (Gal(a1-3)Gal(b1-4)GlcNAc): 0.459
glycan array binding signal (z-score) [4]: -0.493
glycan array binding signal (z-score) [5]: -0.367
glycan array binding signal (z-score) [6]: 1.02
glycan array binding signal (z-score) (Gal(a1-3)GalNAc): -0.41
glycan array binding signal (z-score) [7]: 0.846
glycan array binding signal (z-score) [8]: 0.435
glycan array binding signal (z-score) (Gal(a1-4)Gal(b1-4)Glc): -0.733
glycan array binding signal (z-score) (Gal(a1-4)Gal(b1-4)GlcNAc): -0.537
glycan array binding signal (z-score) [9]: 0.196
glycan array binding signal (z-score) [10]: 0.081
glycan array binding signal (z-score) (Gal(a1-4)GlcNAc): -0.253
glycan array binding signal (z-score) (Gal(a1-6)Glc): -0.107
glycan array binding signal (z-score) (Gal(b1-2)Gal): 0.357
glycan array binding signal (z-score) (Gal(b1-3)Gal): -0.473
glycan array binding signal (z-score) (Gal(b1-3)Gal(b1-4)GlcNAc): -0.676
glycan array binding signal (z-score) [11]: -0.124
glycan array binding signal (z-score) (Gal(b1-3)GalNAc): -0.143
glycan array binding signal (z-score) [12]: 0.06
glycan array binding signal (z-score) [13]: -0.367
glycan array binding signal (z-score) [14]: 0.294
glycan array binding signal (z-score) [15]: -0.538
glycan array binding signal (z-score) [16]: -0.763
glycan array binding signal (z-score) (Gal(b1-3)GlcNAc): -0.29
glycan array binding signal (z-score) [17]: -0.723
glycan array binding signal (z-score) [18]: -0.346
glycan array binding signal (z-score) [19]: 0.328
glycan array binding signal (z-score) [20]: 0.07
glycan array binding signal (z-score) [21]: 0.039
glycan array binding signal (z-score) [22]: 0.013
glycan array binding signal (z-score) [23]: 0.233
glycan array binding signal (z-score) [24]: 0.581
glycan array binding signal (z-score) [25]: -0.452
glycan array binding signal (z-score) [26]: 0.155
glycan array binding signal (z-score) [27]: 0.042
glycan array binding signal (z-score) [28]: 0.568
glycan array binding signal (z-score) [29]: -0.405
glycan array binding signal (z-score) [30]: 0.647
glycan array binding signal (z-score) [31]: 0.595
